# Data from paper PMC8752093.
# The chains behind the UniProt entries cited, without tags or fusion partners. Where a name states a change or a piece, a line headed by the entry shows the natural chain unless it says otherwise. A line that says so, or that is headed by a name, gives the form on record, which may keep a tag or linker.
# UniProt P35222: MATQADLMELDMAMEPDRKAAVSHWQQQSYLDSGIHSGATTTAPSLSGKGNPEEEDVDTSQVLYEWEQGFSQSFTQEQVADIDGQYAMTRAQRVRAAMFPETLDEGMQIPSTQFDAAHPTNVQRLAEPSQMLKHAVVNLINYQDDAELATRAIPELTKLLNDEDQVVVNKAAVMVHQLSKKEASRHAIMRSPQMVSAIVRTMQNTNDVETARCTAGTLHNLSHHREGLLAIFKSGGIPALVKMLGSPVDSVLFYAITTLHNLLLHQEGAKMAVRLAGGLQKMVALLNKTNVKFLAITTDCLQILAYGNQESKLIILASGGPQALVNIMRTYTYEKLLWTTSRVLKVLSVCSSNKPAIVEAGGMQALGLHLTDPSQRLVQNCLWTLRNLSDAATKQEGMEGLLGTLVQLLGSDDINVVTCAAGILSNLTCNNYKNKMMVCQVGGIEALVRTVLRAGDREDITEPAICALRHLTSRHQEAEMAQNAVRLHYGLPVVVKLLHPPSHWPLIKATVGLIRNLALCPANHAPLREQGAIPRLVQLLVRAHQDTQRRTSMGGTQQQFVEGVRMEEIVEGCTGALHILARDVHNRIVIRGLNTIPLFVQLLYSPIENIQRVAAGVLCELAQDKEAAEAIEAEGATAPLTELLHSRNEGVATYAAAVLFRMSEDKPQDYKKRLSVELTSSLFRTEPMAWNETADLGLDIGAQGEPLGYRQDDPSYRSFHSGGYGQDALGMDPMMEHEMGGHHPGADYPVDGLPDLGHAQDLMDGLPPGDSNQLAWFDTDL
# mutant β-catenin-Cherry (endogenous ∆Ser45 β-catenin allele tagged C-terminally with V5, GS linker and mCherry2) (P35222, form named): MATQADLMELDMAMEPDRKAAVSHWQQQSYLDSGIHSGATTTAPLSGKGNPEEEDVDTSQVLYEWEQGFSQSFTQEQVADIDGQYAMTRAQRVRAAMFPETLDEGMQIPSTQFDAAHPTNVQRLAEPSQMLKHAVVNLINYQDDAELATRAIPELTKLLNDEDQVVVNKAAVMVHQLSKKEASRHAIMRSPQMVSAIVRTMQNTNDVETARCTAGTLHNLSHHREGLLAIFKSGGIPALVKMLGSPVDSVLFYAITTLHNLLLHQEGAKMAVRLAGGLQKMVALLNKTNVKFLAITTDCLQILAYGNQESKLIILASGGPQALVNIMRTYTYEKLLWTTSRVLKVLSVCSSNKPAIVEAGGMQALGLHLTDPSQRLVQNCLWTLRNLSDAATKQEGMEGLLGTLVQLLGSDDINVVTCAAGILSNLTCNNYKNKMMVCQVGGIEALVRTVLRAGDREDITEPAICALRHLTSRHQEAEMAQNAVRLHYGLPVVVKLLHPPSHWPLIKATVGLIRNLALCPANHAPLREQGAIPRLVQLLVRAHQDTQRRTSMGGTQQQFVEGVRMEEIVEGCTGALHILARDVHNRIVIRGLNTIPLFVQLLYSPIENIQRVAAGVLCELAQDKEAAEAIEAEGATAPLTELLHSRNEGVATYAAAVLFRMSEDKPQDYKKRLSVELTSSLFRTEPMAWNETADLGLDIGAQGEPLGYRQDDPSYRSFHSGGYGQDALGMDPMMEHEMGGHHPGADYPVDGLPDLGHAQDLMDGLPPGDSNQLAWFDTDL
# UniProt O15169: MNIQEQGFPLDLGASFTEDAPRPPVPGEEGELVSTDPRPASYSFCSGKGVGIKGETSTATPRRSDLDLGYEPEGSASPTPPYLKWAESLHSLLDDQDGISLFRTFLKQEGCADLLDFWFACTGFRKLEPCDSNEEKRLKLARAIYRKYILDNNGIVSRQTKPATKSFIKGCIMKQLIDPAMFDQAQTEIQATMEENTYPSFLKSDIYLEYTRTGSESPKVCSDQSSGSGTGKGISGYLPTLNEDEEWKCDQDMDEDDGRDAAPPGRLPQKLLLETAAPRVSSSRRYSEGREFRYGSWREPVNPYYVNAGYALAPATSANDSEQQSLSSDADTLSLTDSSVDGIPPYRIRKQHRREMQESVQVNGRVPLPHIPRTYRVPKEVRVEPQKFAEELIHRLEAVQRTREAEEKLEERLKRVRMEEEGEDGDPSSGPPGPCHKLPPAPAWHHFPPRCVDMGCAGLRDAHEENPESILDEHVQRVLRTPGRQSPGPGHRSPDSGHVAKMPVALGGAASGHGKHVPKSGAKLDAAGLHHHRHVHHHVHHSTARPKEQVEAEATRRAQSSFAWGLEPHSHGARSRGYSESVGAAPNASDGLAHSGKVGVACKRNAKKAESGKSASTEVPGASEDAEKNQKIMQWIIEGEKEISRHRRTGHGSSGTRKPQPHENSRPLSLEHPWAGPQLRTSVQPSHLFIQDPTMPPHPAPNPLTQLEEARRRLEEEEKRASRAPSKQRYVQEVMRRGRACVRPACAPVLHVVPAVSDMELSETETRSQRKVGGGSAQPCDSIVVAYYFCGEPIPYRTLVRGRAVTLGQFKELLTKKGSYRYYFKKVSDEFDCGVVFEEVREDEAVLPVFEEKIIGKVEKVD
# Results are given in words; binding and its absence hold for the method and conditions named. For part of these data: In cells and extracts the contact can be indirect. Some results given as binding are weak or reduced against the parent protein; the word gives no strength.
# Key:
# [1] = target: mutant β-catenin-Cherry (endogenous ∆Ser45 β-catenin allele tagged C-terminally with V5, GS linker and mCherry2) (human (endogenous in HCT116)) (UniProt P35222); assay: co-IP; Clover- and Cherry-tagged β-catenin precipitated from HCT116 lysate with GFP- or RFP-Trap magnetic beads/agarose, 1 hr at 4°C; β-catenin, Axin1 and GSK3β detected by Western blot
# [2] = target: wild-type β-catenin-Clover (endogenous wild-type β-catenin allele tagged C-terminally with FLAG, GS linker and mClover3) (human (endogenous in HCT116)) (UniProt P35222); assay: as above
# [3] = target: wild-type β-catenin-Clover (endogenous wild-type β-catenin allele tagged C-terminally with FLAG, GS linker and mClover3) (human (endogenous in HCT116)) (UniProt P35222); assay: two-colour fluorescence cross-correlation spectroscopy (FCS); live HCT116 clone #37 cells, cytosol and nucleus, 120 s traces in two colour channels, 37°C and 5% CO2
Substance,binding [1],binding [2],binding [3]
axis inhibition protein 1 (Axin1) (from UniProt O15169 1-862),binds,binds,–
"mutant β-catenin-Cherry (endogenous ∆Ser45 β-catenin allele tagged C-terminally with V5, GS linker and mCherry2) (from UniProt P35222 1-781)",–,–,no binding
